According to publication PMC11749114:
No constants are given. Whether binding was seen depends on the method and setting. In cells and extracts the contact can be indirect. Binding can be weak; no strength is given. Where a sequence is shown, tags or fusion partners need not be part of it.

Experiments:
[1] = target: T1, Flag-tagged wild-type DAZL (Deleted in Azoospermia-like) (human) (UniProt Q92904); test: co-IP; antibodies against PABP or Flag-tagged DAZL; HEK293FT cells overexpressing WT or truncated DAZL; PABP band density normalised to Flag density (ImageJ, n = 3)
T1 sequence: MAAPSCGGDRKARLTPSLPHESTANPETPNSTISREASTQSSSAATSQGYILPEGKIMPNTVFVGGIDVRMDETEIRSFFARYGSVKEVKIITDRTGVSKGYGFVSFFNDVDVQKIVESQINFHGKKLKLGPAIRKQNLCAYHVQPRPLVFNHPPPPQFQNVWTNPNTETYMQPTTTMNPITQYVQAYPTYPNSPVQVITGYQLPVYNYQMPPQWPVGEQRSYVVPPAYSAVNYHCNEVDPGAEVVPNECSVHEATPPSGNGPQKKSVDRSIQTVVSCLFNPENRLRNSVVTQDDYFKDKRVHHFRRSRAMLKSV

[2] = target: T2, Flag-tagged truncated DAZL, c.808C>T (p.Arg270*) (human) (UniProt Q92904); test: as above
T2 sequence: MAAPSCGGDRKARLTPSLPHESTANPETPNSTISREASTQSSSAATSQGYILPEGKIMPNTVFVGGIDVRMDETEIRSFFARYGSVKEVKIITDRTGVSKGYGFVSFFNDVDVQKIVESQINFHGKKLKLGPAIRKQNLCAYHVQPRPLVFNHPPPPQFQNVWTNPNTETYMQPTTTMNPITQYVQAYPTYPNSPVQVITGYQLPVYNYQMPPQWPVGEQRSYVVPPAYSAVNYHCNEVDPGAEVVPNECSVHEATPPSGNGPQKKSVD

binding [1]: binds
binding [2]: binds
Substance: poly(A)-binding protein (PABP) (human (endogenous in HEK293FT))
